These are yes or no findings as the source states them, for the method shown. In cells and extracts the contact can be indirect. Some entries that bind do so weakly or less than the wild type.
Experiments:
Experiment in all cases: co-IP; Triton X-100 (1%) insoluble fractions of vector- or DAB2 cDNA-transfected SW480-FR cells, with or without WNT3A for 12 hours; pooled OptiPrep raft (3-4) and non-raft (7-8) fractions immunoprecipitated with anti-caveolin-1 or anti-clathrin; Western blot
[1] = biological target: caveolin-1, endogenous (human (endogenous in SW480-FR)) (UniProt Q03135)
[2] = biological target: clathrin, endogenous (human (endogenous in SW480-FR)) (UniProt Q00610)
[3] = biological target: LRP6, endogenous (human (endogenous in SW480-FR)) (UniProt O75581)

Chains of the proteins cited; added tags and fusions are not shown. Residues count along the entry.
UniProt Q03135: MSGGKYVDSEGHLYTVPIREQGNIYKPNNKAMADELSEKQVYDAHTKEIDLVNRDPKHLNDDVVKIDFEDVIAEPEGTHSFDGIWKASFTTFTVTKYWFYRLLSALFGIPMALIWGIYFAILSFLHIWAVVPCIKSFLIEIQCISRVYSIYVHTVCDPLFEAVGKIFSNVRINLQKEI
UniProt Q00610: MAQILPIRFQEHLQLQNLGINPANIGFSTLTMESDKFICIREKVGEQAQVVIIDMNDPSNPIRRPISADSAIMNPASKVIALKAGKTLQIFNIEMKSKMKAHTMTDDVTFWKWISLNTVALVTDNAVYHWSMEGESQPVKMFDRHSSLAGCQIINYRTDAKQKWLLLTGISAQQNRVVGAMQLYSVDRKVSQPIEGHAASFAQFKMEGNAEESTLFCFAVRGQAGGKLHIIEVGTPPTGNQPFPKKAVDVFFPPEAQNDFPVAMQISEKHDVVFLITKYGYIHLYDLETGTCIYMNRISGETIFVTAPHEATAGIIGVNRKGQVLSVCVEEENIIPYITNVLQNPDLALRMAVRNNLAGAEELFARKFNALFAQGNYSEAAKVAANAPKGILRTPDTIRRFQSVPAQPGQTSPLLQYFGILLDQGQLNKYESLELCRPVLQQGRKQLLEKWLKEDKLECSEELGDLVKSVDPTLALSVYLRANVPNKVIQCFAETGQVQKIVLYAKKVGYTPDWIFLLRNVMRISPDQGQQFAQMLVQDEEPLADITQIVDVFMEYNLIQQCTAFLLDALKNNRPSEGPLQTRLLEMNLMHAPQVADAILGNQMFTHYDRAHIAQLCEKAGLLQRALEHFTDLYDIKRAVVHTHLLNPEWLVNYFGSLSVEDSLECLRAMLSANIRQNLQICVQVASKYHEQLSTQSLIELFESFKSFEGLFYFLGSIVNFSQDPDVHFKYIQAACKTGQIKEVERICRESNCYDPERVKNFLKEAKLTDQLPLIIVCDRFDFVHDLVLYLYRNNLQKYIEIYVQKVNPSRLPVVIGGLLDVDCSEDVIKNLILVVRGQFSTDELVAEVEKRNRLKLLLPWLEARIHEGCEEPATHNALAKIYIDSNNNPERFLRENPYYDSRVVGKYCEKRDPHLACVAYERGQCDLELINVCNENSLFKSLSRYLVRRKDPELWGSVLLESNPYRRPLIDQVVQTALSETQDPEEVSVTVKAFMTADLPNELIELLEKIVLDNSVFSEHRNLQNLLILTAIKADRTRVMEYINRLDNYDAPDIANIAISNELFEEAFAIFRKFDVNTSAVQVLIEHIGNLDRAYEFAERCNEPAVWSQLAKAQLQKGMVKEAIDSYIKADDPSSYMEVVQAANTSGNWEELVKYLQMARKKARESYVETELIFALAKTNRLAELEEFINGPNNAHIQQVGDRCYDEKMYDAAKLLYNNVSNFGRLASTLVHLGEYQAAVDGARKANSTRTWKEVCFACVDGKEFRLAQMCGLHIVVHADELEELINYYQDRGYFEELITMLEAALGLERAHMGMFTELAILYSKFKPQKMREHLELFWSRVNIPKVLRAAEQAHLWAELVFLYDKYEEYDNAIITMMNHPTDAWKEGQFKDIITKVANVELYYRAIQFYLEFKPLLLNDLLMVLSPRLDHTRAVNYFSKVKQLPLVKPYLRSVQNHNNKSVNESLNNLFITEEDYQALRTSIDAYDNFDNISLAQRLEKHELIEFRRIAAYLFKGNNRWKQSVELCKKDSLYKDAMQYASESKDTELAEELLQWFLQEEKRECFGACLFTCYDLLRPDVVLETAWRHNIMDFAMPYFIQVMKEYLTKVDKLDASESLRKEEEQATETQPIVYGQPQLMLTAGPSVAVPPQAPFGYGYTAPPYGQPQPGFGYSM
UniProt O75581, residues 20-1613: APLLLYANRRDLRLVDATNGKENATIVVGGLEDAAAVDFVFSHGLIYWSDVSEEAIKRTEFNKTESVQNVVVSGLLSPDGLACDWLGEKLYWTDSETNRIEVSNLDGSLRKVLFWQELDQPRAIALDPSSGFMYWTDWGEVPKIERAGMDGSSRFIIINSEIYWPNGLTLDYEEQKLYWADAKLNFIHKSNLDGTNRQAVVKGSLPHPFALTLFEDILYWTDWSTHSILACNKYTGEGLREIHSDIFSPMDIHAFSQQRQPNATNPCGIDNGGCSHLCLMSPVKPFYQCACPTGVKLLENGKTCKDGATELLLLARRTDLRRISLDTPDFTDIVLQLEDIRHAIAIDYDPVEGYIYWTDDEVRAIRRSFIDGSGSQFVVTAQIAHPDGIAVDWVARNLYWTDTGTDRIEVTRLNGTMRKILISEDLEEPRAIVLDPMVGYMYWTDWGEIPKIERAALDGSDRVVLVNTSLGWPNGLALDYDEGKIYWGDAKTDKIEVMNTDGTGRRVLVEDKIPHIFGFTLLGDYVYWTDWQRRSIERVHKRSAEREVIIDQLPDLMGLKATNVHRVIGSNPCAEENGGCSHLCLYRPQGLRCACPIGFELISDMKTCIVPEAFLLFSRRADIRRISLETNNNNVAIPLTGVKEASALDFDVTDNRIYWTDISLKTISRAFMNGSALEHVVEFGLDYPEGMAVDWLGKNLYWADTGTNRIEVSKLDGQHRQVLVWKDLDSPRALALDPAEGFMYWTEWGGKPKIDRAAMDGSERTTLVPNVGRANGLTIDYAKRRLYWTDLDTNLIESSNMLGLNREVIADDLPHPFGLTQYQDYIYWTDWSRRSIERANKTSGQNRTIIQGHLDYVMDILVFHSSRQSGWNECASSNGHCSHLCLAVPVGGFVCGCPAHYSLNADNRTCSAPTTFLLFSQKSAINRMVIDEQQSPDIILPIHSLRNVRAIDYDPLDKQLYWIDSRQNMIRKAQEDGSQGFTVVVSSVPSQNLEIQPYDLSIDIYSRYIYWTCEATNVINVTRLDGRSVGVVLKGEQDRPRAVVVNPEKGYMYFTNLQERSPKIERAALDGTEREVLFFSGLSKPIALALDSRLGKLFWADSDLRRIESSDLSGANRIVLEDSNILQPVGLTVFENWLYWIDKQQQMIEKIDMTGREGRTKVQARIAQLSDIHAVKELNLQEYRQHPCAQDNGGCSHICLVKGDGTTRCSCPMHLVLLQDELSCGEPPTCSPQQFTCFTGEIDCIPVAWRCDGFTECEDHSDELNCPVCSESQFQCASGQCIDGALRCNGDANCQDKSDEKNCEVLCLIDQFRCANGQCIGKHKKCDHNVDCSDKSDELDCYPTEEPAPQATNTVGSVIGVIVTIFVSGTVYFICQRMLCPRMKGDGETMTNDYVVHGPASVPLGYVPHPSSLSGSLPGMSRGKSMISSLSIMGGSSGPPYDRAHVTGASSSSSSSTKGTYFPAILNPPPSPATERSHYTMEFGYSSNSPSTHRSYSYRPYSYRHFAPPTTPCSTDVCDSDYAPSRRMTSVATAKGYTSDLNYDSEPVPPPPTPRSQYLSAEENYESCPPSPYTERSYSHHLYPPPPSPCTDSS
UniProt P49841: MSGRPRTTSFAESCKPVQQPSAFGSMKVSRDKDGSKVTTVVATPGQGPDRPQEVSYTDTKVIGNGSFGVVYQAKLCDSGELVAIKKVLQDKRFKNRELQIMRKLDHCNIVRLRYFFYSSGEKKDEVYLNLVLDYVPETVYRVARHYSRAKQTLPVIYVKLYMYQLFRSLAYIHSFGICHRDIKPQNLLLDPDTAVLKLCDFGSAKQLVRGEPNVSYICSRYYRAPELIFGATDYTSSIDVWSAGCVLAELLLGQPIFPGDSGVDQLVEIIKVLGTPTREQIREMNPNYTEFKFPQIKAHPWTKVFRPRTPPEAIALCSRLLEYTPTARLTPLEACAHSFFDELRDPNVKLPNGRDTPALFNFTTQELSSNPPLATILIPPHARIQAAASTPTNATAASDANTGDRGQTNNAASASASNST

| binding [1] | binding [2] | binding [3] | Molecule |
| --- | --- | --- | --- |
| binds | no binding | – | GSK3β, endogenous (from UniProt P49841 1-420) (enzyme) |
| – | – | binds | DAB2 (disabled-2), ectopically expressed (protein, UniProt P98082 1-770) MSNEVETSATNGQPDQQAAPKAPSKKEKKKGPEKTDEYLLARFKGDGVKYKAKLIGIDDVPDARGDKMSQDSMMKLKGMAAAGRSQGQHKQRIWVNISLSGIKIIDEKTGVIEHEHPVNKISFIARDVTDNRAFGYVCGGEGQHQFFAIKTGQQAEPLVVDLKDLFQVIYNVKKKEEEKKKIEEASKAVENGSEALMILDDQTNKLKSGVDQMDLFGDMSTPPDLNSPTESKDILLVDLNSEIDTNQNSLRENPFLTNGITSCSLPRPTPQASFLPENAFSANLNFFPTPNPDPFRDDPFTQPDQSTPSSFDSLKSPDQKKENSSSSSTPLSNGPLNGDVDYFGQQFDQISNRTGKQEAQAGPWPFSSSQTQPAVRTQNGVSEREQNGFSVKSSPNPFVGSPPKGLSIQNGVKQDLESSVQSSPHDSIAIIPPPQSTKPGRGRRTAKSSANDLLASDIFAPPVSEPSGQASPTGQPTALQPNPLDLFKTSAPAPVGPLVGLGGVTVTLPQAGPWNTASLVFNQSPSMAPGAMMGGQPSGFSQPVIFGTSPAVSGWNQPSPFAASTPPPVPVVWGPSASVAPNAWSTTSPLGNPFQSNIFPAPAVSTQPPSMHSSLLVTPPQPPPRAGPPKDISSDAFTALDPLGDKEIKDVKEMFKDFQLRQPPAVPARKGEQTSSGTLSAFASYFNSKVGIPQENADHDDFDANQLLNKINEPPKPAPRQVSLPVTKSTDNAFENPFFKDSFGSSQASVASSQPVSSEMYRDPFGNPFA |
